# Test results reported in paper PMC11257983 (2024).
# Where a chain is given by its changes, count along the chain named. These are yes or no findings as the source states them, for the method shown. In cells and extracts the contact can be indirect. Some results given as binding are weak or reduced against the parent protein; the word gives no strength. Where a sequence is shown, tags or fusion partners need not be part of it.
# B1: V5-KSR (protein, UniProt Q24171 1-966)
# chain: MSSNNNAPASAPDTGSTNANDPISGSLSVDSNLVIIQDMIDLSANHLEGLRTQCAISSTLTQQEIRCLESKLVRYFSELLLAKMRLNERIPANGLVPHTTGNELRQWLRVVGLSQGTLTACLARLTTLEQSLRLSDEEIRQLLADSPSQREEEELRRLTRAMQNLRKCMESLESGTAASNNDPEQWHWDSWDRPTHIHRGSVGNIGLGNNSTASPRTHHRQHGVKGKNSALANSTNFKSGRQSPSATEELNSTQGSQLTLTLTPSPPNSPFTPSSGLSSSLNGTPQRSRGTPPPARKHQTLLSQSHVQVDGEQLARNRLPTDPSPDSHSSTSSDIFVDPNTNASSGGSSSNVLMVPCSPGVGHVGMGHAIKHRFTKALGFMATCTLCQKQVFHRWMKCTDCKYICHKSCAPHVPPSCGLPREYVDEFRHIKEQGGYASLPHVHGAAKGSPLVKKSTLGKPLHQQHGDSSSPSSSCTSSTPSSPALFQQRERELDQAGSSSSANLLPTPSLGKHQPSQFNFPNVTVTSSGGSGGVSLISNEPVPEQFPTAPATANGGLDSLVSSSNGHMSSLIGSQTSNASTAATLTGSLVNSTTTTSTCSFFPRKLSTAGVDKRTPFTSEYTDTHKSNDSDKTVSLSGSASTDSDRTPVRVDSTEDGDSGQWRQNSISLKEWDIPYGDLLLLERIGQGRFGTVHRALWHGDVAVKLLNEDYLQDEHMLETFRSEVANFKNTRHENLVLFMGACMNPPYLAIVTSLCKGNTLYTYIHQRREKFAMNRTLLIAQQIAQGMGYLHAREIIHKDLRTKNIFIENGKVIITDFGLFSSTKLLYCDMGLGVPHNWLCYLAPELIRALQPEKPRGECLEFTPYSDVYSFGTVWYELICGEFTFKDQPAESIIWQVGRGMKQSLANLQSGRDVKDLLMLCWTYEKEHRPQFARLLSLLEHLPKKRLARSPSHPVNLSRSAESVF
# Columns and labels:
# [1] = molecular target: T1, GST-CNK^2–384 (Drosophila) (UniProt Q7KNQ9); experiment: pull-down; GST-CNK fragments as bait; S2 cells co-transfected with Pyo-HYP, V5-KSR and Myc-MEK alone, in pairs or all three; total lysates in Triton lysis buffer (50 mM Tris pH 7.5, 150 mM NaCl, 0.2% Triton X-100), overnight at 4 °C; immunoblot
# T1 sequence: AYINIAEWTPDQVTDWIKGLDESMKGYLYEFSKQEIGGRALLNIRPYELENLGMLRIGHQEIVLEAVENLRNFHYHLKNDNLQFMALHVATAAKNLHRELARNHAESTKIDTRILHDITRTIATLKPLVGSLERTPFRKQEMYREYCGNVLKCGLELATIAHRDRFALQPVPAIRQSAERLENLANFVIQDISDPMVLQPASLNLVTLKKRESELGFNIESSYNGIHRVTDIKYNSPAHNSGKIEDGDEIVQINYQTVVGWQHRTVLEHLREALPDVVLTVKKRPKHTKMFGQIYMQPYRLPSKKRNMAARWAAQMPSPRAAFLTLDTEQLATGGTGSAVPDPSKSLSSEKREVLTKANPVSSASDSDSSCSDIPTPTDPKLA
# [2] = molecular target: T2, GST-CNK^2–549 (Drosophila) (UniProt Q7KNQ9); experiment: as above
# T2 sequence: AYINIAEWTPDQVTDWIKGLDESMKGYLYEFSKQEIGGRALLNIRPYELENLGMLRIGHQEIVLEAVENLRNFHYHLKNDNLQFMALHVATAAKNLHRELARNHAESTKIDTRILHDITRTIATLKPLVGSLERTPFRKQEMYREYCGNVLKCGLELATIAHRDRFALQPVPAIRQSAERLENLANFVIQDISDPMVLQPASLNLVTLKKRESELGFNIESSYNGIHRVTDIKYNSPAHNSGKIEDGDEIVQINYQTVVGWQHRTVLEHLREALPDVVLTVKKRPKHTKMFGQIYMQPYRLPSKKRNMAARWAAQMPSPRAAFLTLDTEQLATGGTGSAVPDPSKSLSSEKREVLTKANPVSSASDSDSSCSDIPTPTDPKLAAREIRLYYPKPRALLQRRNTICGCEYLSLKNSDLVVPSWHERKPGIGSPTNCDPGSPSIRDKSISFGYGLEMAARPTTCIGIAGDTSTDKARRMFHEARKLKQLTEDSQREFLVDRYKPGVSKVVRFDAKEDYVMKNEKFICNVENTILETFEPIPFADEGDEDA
# [3] = molecular target: T3, Flag-CNK^2–549 (Drosophila) (UniProt Q7KNQ9); experiment: pull-down; GST-HYP as bait, CNK^2–549 co-expressed in S2 cells with Ha-RAS^V12, Pyo-RAF, V5-KSR and Myc-MEK (RRKM); total lysates, overnight at 4 °C; immunoblot
# T3 sequence: T2 sequence
# [4] = molecular target: T4, Flag-CNK^2–549 Q200A (Drosophila) (UniProt Q7KNQ9); experiment: pull-down; GST-HYP as bait, CNK, KSR and MEK variants co-expressed in S2 cells (Fig. 2c,d; Extended Data Fig. 7e); total lysates, overnight at 4 °C; immunoblot
# T4 sequence: T2 sequence with Q199A
# [5] = molecular target: T3, Flag-CNK^2–549 (Drosophila); experiment: as above
# Pyo-RAF (Drosophila) = molecular target: T5, Pyo-RAF (Drosophila) (UniProt P11346); experiment: co-IP; anti-Pyo immunoprecipitation of Pyo-RAF from S2 total lysates, protein A/G agarose, overnight at 4 °C; KSR blotted; without or with co-expressed MEK and CNK–HYP
# T5 sequence: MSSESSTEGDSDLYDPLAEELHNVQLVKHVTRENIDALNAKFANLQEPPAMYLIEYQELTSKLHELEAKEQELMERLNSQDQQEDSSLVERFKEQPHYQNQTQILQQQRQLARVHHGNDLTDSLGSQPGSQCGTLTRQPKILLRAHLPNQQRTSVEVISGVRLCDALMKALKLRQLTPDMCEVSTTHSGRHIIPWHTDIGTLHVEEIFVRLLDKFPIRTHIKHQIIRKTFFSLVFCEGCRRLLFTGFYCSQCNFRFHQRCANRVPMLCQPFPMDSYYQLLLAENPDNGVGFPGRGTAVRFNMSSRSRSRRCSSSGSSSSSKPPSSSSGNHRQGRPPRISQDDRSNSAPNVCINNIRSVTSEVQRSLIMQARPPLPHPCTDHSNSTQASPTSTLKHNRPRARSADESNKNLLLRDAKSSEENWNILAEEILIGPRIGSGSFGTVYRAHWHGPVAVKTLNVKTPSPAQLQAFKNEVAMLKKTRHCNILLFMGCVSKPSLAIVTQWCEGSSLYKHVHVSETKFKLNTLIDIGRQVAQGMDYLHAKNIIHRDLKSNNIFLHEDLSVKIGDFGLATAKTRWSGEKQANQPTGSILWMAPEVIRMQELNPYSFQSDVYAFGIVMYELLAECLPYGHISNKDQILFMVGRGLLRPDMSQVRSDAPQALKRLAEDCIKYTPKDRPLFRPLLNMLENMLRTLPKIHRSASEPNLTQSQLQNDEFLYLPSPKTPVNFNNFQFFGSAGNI
binder,measurement,setting,value
B1,binding,[1],binds
same,binding,[2],binds
same,binding,[3],binds
same,binding,[4],binds
same,binding,[5],binds
same,binding,Pyo-RAF (Drosophila),binds weakly
